Drawing on patent publication US11691972B2, “Compounds for targeted degradation of BRD9” (C4 Therapeutics, Inc., priority 2020, dated 2023), this text covers DC50 for seven molecules.

Amino acid sequences for entries named in this document (tags omitted).
UniProt Q9H8M2, whole entry: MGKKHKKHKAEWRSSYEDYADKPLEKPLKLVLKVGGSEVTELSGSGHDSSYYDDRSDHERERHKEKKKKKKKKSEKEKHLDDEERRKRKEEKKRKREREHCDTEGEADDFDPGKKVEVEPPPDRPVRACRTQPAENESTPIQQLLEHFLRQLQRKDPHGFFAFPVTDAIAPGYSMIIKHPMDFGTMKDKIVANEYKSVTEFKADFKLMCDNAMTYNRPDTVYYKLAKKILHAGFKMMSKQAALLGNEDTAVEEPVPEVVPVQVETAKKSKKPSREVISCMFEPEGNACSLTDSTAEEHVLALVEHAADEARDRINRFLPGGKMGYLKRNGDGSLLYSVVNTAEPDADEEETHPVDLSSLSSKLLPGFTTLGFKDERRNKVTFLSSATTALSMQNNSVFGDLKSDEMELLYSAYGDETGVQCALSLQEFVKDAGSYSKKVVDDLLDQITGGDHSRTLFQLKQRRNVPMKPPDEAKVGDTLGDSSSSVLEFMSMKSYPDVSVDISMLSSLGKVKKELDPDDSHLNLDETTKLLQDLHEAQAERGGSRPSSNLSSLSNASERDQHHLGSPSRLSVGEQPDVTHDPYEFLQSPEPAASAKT

For this assay, the target named is BRD9 (Homo sapiens, UniProt Q9H8M2). Kind of assay: HiBiT BRD9 degradation assay in 293T.166 (BRD9-HiBiT) cells. The procedure:
Selected compounds were tested in a BRD9 degradation assay using the HiBit Method.
Dulbecco's modified Eagle medium (DMEM) without phenol red and fetal bovine serum (FBS) were purchased from Gibco (Grand Island, N.Y., USA). Nano-Glo® HiBiT Lytic Assay System was purchased from Promega (Madison, Wis., USA). 293T.166 (BRD9-HiBiT) cell line, endogenously expressing BRD9 with HiBiT fusion tag via CRISPR and ectopically expressing LgBiT tag, was purchased from Promega (Madison, Wis., USA). 293T.167 (BRD7-HiBiT) cell line, endogenously expressing BRD7 with HiBiT fusion tag via CRISPR and ectopically expressing LgBiT tag, was purchased from Promega (Madison, Wis., USA). 293T.92 (BRD4-HiBiT) cell line, endogenously expressing BRD4 with HiBiT fusion tag via CRISPR and ectopically expressing LgBiT tag, was generated in-house. Cell culture flasks and 384-well microplates were acquired from VWR (Radnor, Pa., USA).
BRD9 degradation was determined based on quantification of luminescent signal using Nano-Glo® HiBiT Lytic Assay kit. Test compounds were added to the 384-well plate from a top concentration of 10 μM with 11 points, half log titration in duplicates. 293T.166 cells were added into 384-well plates at a cell density of 10,000 cells per well. The plates were kept at 37° C. with 5% CO2 for 2 hours. BRD7 and BRD4 degradation was similarly determined with 293T.167 cells and 293T.92 cells, respectively. The cells treated in the absence of the test compound were the negative control and the cells without Nano-Glo® HiBiT Lytic reagent were the positive control. After 2-hour incubation, Nano-Glo® HiBiT Lytic Assay reagents were added to the cells. Luminescence was acquired on EnVision™ Multilabel Reader (PerkinElmer, Santa Clara, Calif., USA).

The mark [1] stands for this setting: read-out: HiBiT-Degradation 293T.166 BRD9 2.0 hours (DC50), Table 2, 293T.166 cells, class symbols.
[2] abbreviates: read-out: HiBiT-Degradation 293T.166 BRD9 2.0 hours (DC50), Table 1, 293T.166 cells, class symbols.

Read-outs that look alike come from different tables or passages of the source. The structures given here were assigned with low confidence; some may be wrong. Bounds are passed on as bounds.

Regarding `COc1cc(-c2cn(C)c(=O)c3cnccc23)cc(Cl)c1CN1CCC(F)(CCC2CCN(c3ccc(NC4CCC(=O)NC4=O)cc3Cl)CC2)CC1` (centres unmarked), under setting [1], the DC50 was under 100 nM.

For `Cn1cc(-c2ccc(C(=O)N3CCC(C4CCN(c5ccc(NC6CCC(=O)NC6=O)cc5F)CC4)CC3)c(OC(F)(F)F)c2)c2ccccc2c1=O` (centres unmarked), the DC50 under setting [2] is under 100 nM.

`Cc1c(-c2ccc(C(=O)N3CCC(N4CCN(c5ccc(NC6CCC(=O)NC6=O)cc5F)CC4)C(F)(F)C3)c(OC(F)(F)F)c2)cn(C)c(=O)c1C` (single isomer, unassigned): the DC50 reads like this: under setting [1], under 100 nM; (read-out: HiBiT-Degradation 293T.166 BRD9 2.0 hours (DC50), Table 2, 293T.166 cells, numeric bound) over 800 nM.

As for `COc1cc(-c2cn(C)c(=O)c3cnccc23)cc(Cl)c1CN1CCC(F)(C2CCN(c3ccc(NC4CCC(=O)NC4=O)cc3F)CC2)CC1` (centres unmarked), under setting [1], the DC50 is under 100 nM.

Take `COc1cc(-c2cn(C)c(=O)c3cnccc23)cc(Cl)c1CN1CCC(N2CCN(c3c(F)cc(NC4CCC(=O)NC4=O)cc3F)CC2)C(F)(F)C1` (centres unmarked): under setting [1], the DC50 is under 100 nM.

For the molecule `COc1cc(-c2cn(C)c(=O)c3[nH]ncc23)cc(Cl)c1CN1CCC(N(C)C(=O)N2CCC(c3ccc(NC4CCC(=O)NC4=O)cc3F)CC2)CC1` (centres unmarked), the DC50 under setting [2] was under 100 nM.

In the case of `CC(c1ccc(-c2cn(C)c(=O)c3cnccc23)cc1OC(F)(F)F)N1CCC(N(C)C(=O)N2CCC(c3ccc(NC4CCC(=O)NC4=O)cc3F)CC2)CC1` (centres unmarked), under setting [2], the DC50 is under 100 nM.
